# Measured data: PubChem BioAssay AID1159594 (NIAID, 2016)
# Test: 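Genes required for a TNF reporter response to diacyl lipopeptide stimulation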
# Cell system: human THP-1 B5 reporter cells, PMA-differentiated into macrophage-like cells
# Reagents: single siRNA against human genes
# Duration: 48 to 72 hours after siRNA transfection; ligand exposure 4 hours
# Treatment: Pam2CSK4 (TLR2/6 agonist) stimulation for 4 hours before lysis; dose not given
# Detection: 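Robust z-score, relative to negative controls, of the firefly/renilla ratio from a TNF promoter reporter, after per-plate median/MAD scaling, mean of replicate screens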
# Reading the numbers: TNF reporter z-score: higher = stronger TNF promoter reporter activity
# Hit rule: 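The depositor sorts siRNAs into z-score bands with cut-offs of 2.5, 2, 1.5 and 1; grade 50 and above, meaning |z| of 1.5 or more, counts as active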
# Meaning of the calls: active = z-score beyond ±1.5 (either direction); inactive = z-score within ±1.5
# Shown is one part, drawn at random, of 756 reagents. Of all reagents, 130 (17%) are marked active. 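Active calls cover both falls and rises of reporter activity; each row reflects one siRNA, not a gene-level verdict.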 Reagents against one gene are numbered here. Not given: the amount of reagent.
gene knocked down,siRNA no.,"TNF reporter z-score, replicate mean",call
MAP2K3 (GeneID 5606),1,-0.738,inactive
MAP2K3 (GeneID 5606),2,-1.29,inactive
MAP2K3 (GeneID 5606),3,-0.688,inactive
MAP2K3 (GeneID 5606),4,-2.95,active
MAP2K3 (GeneID 5606),5,-0.331,inactive
MAP2K3 (GeneID 5606),6,-3.67,active
IFNAR1 (GeneID 3454),1,-1.26,inactive
IFNAR1 (GeneID 3454),2,-0.884,inactive
IFNAR1 (GeneID 3454),3,0.148,inactive
IFNAR1 (GeneID 3454),4,0.177,inactive
IFNAR1 (GeneID 3454),5,-1.24,inactive
IFNAR1 (GeneID 3454),6,0.181,inactive
NFKB1 (GeneID 4790),1,-1.74,active
NFKB1 (GeneID 4790),2,-0.788,inactive
NFKB1 (GeneID 4790),3,-1.18,inactive
NFKB1 (GeneID 4790),4,-0.51,inactive
NFKB1 (GeneID 4790),5,0.636,inactive
NFKB1 (GeneID 4790),6,-0.505,inactive
MAPK11 (GeneID 5600),1,-0.31,inactive
MAPK11 (GeneID 5600),2,-1.19,inactive
MAPK11 (GeneID 5600),3,-1.17,inactive
MAPK11 (GeneID 5600),4,-0.247,inactive
MAPK11 (GeneID 5600),5,1.53,active
MAPK11 (GeneID 5600),6,-0.479,inactive
EGR2 (GeneID 1959),1,-0.0947,inactive
EGR2 (GeneID 1959),2,-1.09,inactive
EGR2 (GeneID 1959),3,-2.35,active
EGR2 (GeneID 1959),4,-1.08,inactive
EGR2 (GeneID 1959),5,-0.656,inactive
EGR2 (GeneID 1959),6,-2.2,active
PTPN6 (GeneID 5777),1,-0.0124,inactive
PTPN6 (GeneID 5777),2,0.31,inactive
PTPN6 (GeneID 5777),3,-0.371,inactive
PTPN6 (GeneID 5777),4,-2.13,active
PTPN6 (GeneID 5777),5,-1.22,inactive
PTPN6 (GeneID 5777),6,-1.16,inactive
IRF3 (GeneID 3661),1,-0.935,inactive
IRF3 (GeneID 3661),2,-0.0513,inactive
IRF3 (GeneID 3661),3,-1.03,inactive
IRF3 (GeneID 3661),4,-1.71,active
IRF3 (GeneID 3661),5,-0.662,inactive
IRF3 (GeneID 3661),6,-0.51,inactive
PIK3CB (GeneID 5291),1,-1.53,active
PIK3CB (GeneID 5291),2,-0.769,inactive
PIK3CB (GeneID 5291),3,-0.566,inactive
PIK3CB (GeneID 5291),4,-0.0881,inactive
PIK3CB (GeneID 5291),5,0.571,inactive
PIK3CB (GeneID 5291),6,-0.462,inactive
MAPK12 (GeneID 6300),1,0.318,inactive
MAPK12 (GeneID 6300),2,-0.826,inactive
MAPK12 (GeneID 6300),3,-0.244,inactive
MAPK12 (GeneID 6300),4,-1.05,inactive
MAPK12 (GeneID 6300),5,0.164,inactive
MAPK12 (GeneID 6300),6,-0.318,inactive
RELA (GeneID 5970),1,-1.86,active
RELA (GeneID 5970),2,-1.53,active
RELA (GeneID 5970),3,-1.84,active
RELA (GeneID 5970),4,-2.52,active
RELA (GeneID 5970),5,-1.62,active
RELA (GeneID 5970),6,-2.83,active

Not a retest: an excerpt of the list.
gene knocked down,siRNA no.,"TNF reporter z-score, replicate mean",call
PTPN6 (GeneID 5777),4,-2.13,active
PTPN6 (GeneID 5777),5,-1.22,inactive
PTPN6 (GeneID 5777),6,-1.16,inactive
